PubChem BioAssay AID1259308 | NCATS | 2017

Purpose: 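Knock-downs that increase output of a recombinant reporter protein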 (primary screen)
System: human HEK293 embryonic kidney cells stably expressing firefly luciferase (HEK-CMV-Luc2-Hygro)
Knock-down reagent: single siRNA against human genes, 0.8 pmol siRNA per well
Duration: 72 h
Measured: 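Reporter luminescence and viable-cell signal on separate replicate plates, given as percent of non-targeting control and median/MAD z-scores, plus per-cell luciferase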
Reading the numbers: total luciferase, z-score: higher = more reporter protein produced
Call rule: 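An siRNA counts as active if its total luciferase robust z-score exceeds 3; genes with two or more such siRNAs out of three were retested with fresh siRNAs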
Meaning of the calls: active = raised luciferase; inactive = no rise
Here is a random part of about 59,000 reagents. About 1,510 of them (2.6%) count as active. 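Calls use total luciferase alone and ignore viability, so some active siRNAs may act by altering cell number.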 A number with no mark means an inactive call. Reagents against one gene are numbered here. Not all columns of the deposit are shown.

For PRELID1P6 (GeneID 388955) #1, what was measured?
total luciferase, z-score: -3.09

Which result is listed for PRELID1P6 (GeneID 388955) #2?
total luciferase, z-score: 0.00289

For PRELID1P6 (GeneID 388955) #3, how do the results read?
total luciferase, z-score: 0.801

With KCNS3 (GeneID 3790) #1, how do the results read?
total luciferase, z-score: -0.341

What did the screen give for KCNS3 (GeneID 3790) #2?
total luciferase, z-score: -0.982

What did the screen give for KCNS3 (GeneID 3790) #3?
total luciferase, z-score: 0.126

With WDR48 (GeneID 57599) #1, what does the deposit list?
total luciferase, z-score: -0.163

With WDR48 (GeneID 57599) #2, how do the results read?
total luciferase, z-score: 0.615

For WDR48 (GeneID 57599) #3, how do the results read?
total luciferase, z-score: -0.106

With EXOSC5 (GeneID 56915) #1, what was measured?
total luciferase, z-score: -0.0556

Which result is listed for EXOSC5 (GeneID 56915) #2?
total luciferase, z-score: -1.09

What is on record for EXOSC5 (GeneID 56915) #3?
total luciferase, z-score: 0.108

For LINC03007 (GeneID 646588) #1, what does the deposit list?
total luciferase, z-score: -0.399

With LINC03007 (GeneID 646588) #2, what was measured?
total luciferase, z-score: 1.83

Which result is listed for LINC03007 (GeneID 646588) #3?
total luciferase, z-score: 0.818

Reformatted: 5 of the entries above.
EXOSC5 (GeneID 56915) #1
- total luciferase, z-score: -0.0556

EXOSC5 (GeneID 56915) #2
- total luciferase, z-score: -1.09

EXOSC5 (GeneID 56915) #3
- total luciferase, z-score: 0.108

LINC03007 (GeneID 646588) #1
- total luciferase, z-score: -0.399

LINC03007 (GeneID 646588) #2
- total luciferase, z-score: 1.83

Next results follow:
How did the screen score PDCD6IP (GeneID 10015) #1?
total luciferase, z-score: 0.162

For PDCD6IP (GeneID 10015) #2, how do the results read?
total luciferase, z-score: -0.222

With PDCD6IP (GeneID 10015) #3, what does the deposit list?
total luciferase, z-score: -0.279

For CFHR5 (GeneID 81494) #1, what was measured?
total luciferase, z-score: -0.0533

With CFHR5 (GeneID 81494) #2, what was measured?
total luciferase, z-score: 1.08

With CFHR5 (GeneID 81494) #3, what was measured?
total luciferase, z-score: -0.797

Which result is listed for FBXO7 (GeneID 25793) #1?
total luciferase, z-score: 0.62

With FBXO7 (GeneID 25793) #2, how do the results read?
total luciferase, z-score: 0.108

For FBXO7 (GeneID 25793) #3, how do the results read?
total luciferase, z-score: -3.22

What did the screen give for RBM43 (GeneID 375287) #1?
total luciferase, z-score: -0.433

With RBM43 (GeneID 375287) #2, how do the results read?
total luciferase, z-score: 0.558

For RBM43 (GeneID 375287) #3, what was measured?
total luciferase, z-score: 0.576

With CDK7 (GeneID 1022) #1, how do the results read?
total luciferase, z-score: -0.957

For CDK7 (GeneID 1022) #2, what does the deposit list?
total luciferase, z-score: -1.09

For CDK7 (GeneID 1022) #3, what does the deposit list?
total luciferase, z-score: -1.02

Which result is listed for FHL5 (GeneID 9457) #1?
total luciferase, z-score: -0.624

What is on record for FHL5 (GeneID 9457) #2?
total luciferase, z-score: -0.348

How did the screen score FHL5 (GeneID 9457) #3?
total luciferase, z-score: 1.27
